Results on 3 molecules are retold here after publication PMC4682037, “Signal transduction in light–oxygen–voltage receptors lacking the adduct-forming cysteine residue” (Nature Communications, 2015).

No constants are given. Whether binding was seen depends on the method and setting.

The target in assay [1] is VVD-III:Q182L (Neurospora) (UniProt Q9C3Y6). The experiment in a line: SEC; analytical SEC, Superdex 75 or 200 10/300 GL; dark-adapted (oxidized quinone) sample, foil-covered column; both purified. In general terms: In gel filtration, larger molecules generally elute earlier.
The target is the same in assay [2]. The experiment in a line: SEC; analytical SEC, Superdex 75 or 200 10/300 GL; light-adapted (NSQ) sample obtained by irradiation on ice, uncovered column with constant external illumination; both purified.
The target of assay [3] is VVD-III:Y40E (Neurospora) (UniProt Q9C3Y6). The experiment in a line: SEC; analytical SEC, Superdex 75 or 200 10/300 GL; dark-adapted (oxidized quinone) sample, foil-covered column; both purified.
The target is the same in assay [4]. The assay can be described thus: SEC; analytical SEC, Superdex 75 or 200 10/300 GL; light-adapted (NSQ) sample obtained by irradiation on ice, uncovered column with constant external illumination; both purified.
The target of assay [5] is VVD-III (VVD Δ36, C108A:M135I:M165I) (Neurospora) (UniProt Q9C3Y6). The experiment in a line: SEC; VVD-III as purified from E. coli passed through a SEC column; flavin redox states separate; yellow-coloured, oxidized protein; both purified.
Assay [6] has the same target. The assay can be described thus: condition: only dark-adapted, oxidized quinone state; SEC; analytical SEC, Superdex 75 or 200 10/300 GL; dark-adapted (oxidized quinone) sample, foil-covered column; both purified.

With “VVD-III:Q182L (from UniProt Q9C3Y6 37-186) (domain or fragment)”, the binding result in assay [1] and in assay [2] was “no binding” throughout.

For “VVD-III:Y40E (from UniProt Q9C3Y6 37-186) (domain or fragment)”, the binding entry in assay [3] and in assay [4] was “no binding” in each case.

B1: VVD-III (VVD Δ36, C108A:M135I:M165I) (domain or fragment, Neurospora, UniProt Q9C3Y6 37-186, looked up)
chain: HTLYAPGGYDIMGYLIQIMNRPNPQVELGPVDTSCALILCDLKQKDTPIVYASEAFLYMTGYSNAEVLGRNARFLQSPDGMVKPKSTRKYVDSNTINTIRKAIDRNAEVQVEVVNFKKNGQRFVNFLTIIPVRDETGEYRYSMGFQCETE
notes: Vivid (VVD), LOV photoreceptor of Neurospora; lacks the first 36 N-terminal residues; C108A, M135I, M165I; Dark-adapted: oxidized quinone; light-adapted: neutral semiquinone (NSQ); also called Vivid; source: E. coli BL21(DE3), purified (Ni:NTA, SEC)
B1: the binding result is “no binding (condition: oxidized flavin (quinone) state)” in assay [5] and “no binding” in assay [6].
